A short description of this experiment: qHTS Assay for Lipid Storage Modulators in Drosophila S3 Cells.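 For cell number change: cells counted by Cell Tracker Red CMTPX staining in the red channel.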 Conditions: BODIPY lipid droplet fluorescence, 18-24 h; for cell number change: measured here: cell count max response, cells fed with added oleic acid. Put shortly: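 Laser-scanning cytometry quantifies lipid droplet accumulation (500–530 nm total intensity; droplet/cell object ratio) in oleic acid-fed (400 uM added) Drosophila S3 cells treated with a concentration series. 20 uM Triacsin C defined 100% inhibition.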
For orientation: Quantitative high-throughput screening tests each substance at several concentrations.

The mark [1] stands for this setting: measured here: cell number channel AC50, cells fed with added oleic acid.
Where [2] appears, read: measured here: lipid fluorescence (Fed channel) AC50, cells fed with added oleic acid.

Structures are written as SMILES. The list shows a part of the results. Further columns of the screen follow, without active or inactive calls. Most of these compounds were active or inconclusive in the main read-out, so they are no random draw. Words in brackets tell the shape of the fitted curve; partial curves, single points and poor fits give uncertain potencies.

For `CCC1(c2ccccc2)NC(=O)N(CC(=O)Nc2cc(S(=O)(=O)N3CCCCC3)ccc2OC(C)C)C1=O` (stereo unspecified), the cell number change was 7.27%.
Consider `CC1(C)O[C@@H]2[C@H](O1)[C@@H](COS(=O)(=O)O)O[C@H]2n1cnc2c(=O)[nH]cnc21`, for which the cell number change amounted to 5.16%. In addition, the AC50 under setting [1] is 3.26 µM [falling, partial curve, poor fit]. Moreover, the half-maximal activity concentration (AC50) under setting [2] is 7.31 µM [rising, partial curve, poor fit].
In the case of `CCOC(=O)c1nc(S(C)(=O)=O)ncc1Cl`, the cell number change was -89.7%. In addition, the concentration at half-maximal activity (AC50) under setting [1] was 8.2 µM [falling, partial curve]. Further, the concentration at half-maximal activity (AC50) under setting [2] was 3.66 µM [falling, partial curve].
As for `CCOc1ccc(-c2nonc2NC(=O)c2ccco2)cc1`, the cell number change is 4.62%.
Consider `CC1CC1C(=O)OCC(=O)NNC(=O)c1ccc([N+](=O)[O-])cc1` (stereo unspecified), for which the cell number change is -11%.
Take `CC(C)C(NC=C1C(=O)OC(C)(C)OC1=O)C(=O)O` (stereo unspecified): the cell number change is -6.49%. Under setting [2], the AC50 is 0.13 µM [falling, full curve, poor fit].
`CCC1(C)Cc2c(sc3nc(SCC(=O)O)[nH]c(=O)c23)CO1` (stereo unspecified): the cell number change was -110%. The AC50 under setting [1] was 29.1 µM [falling, single point].
Regarding `CCC(C)(C)NC(=O)CN(Cc1ccc(F)cc1)C(=O)CCC(=O)Nc1ccccn1`, the cell number change is 13.5%. For the same compound, under setting [2], the AC50 was 0.231 µM [falling, full curve, poor fit].
`O=C(Nc1cccnc1)C1CCC(CNS(=O)(=O)c2cccc3nsnc23)CC1` (stereo unspecified): the cell number change was -7%.
Take `N/C(=N\OC(=O)c1ccc2c(c1)OCO2)c1ccc(Br)cc1`: the cell number change was 6.78%. Besides, under setting [2], the AC50 was 0.13 µM [rising, full curve, poor fit].
Regarding `CN(C)CCCNCC(=O)c1c(-c2ccccc2)n(C)c2ccccc12`, the cell number change is -12.6%. In addition, under setting [2], the concentration at half-maximal activity (AC50) was 6.51 µM [falling, partial curve].
For `COc1ccc(N=C(C)c2sc3ccccc3c2O)cc1`, the cell number change is -20%. In addition, the half-maximal activity concentration (AC50) under setting [2] is 29.1 µM [falling, single point].
Take `Cc1cc(C)c(C#N)c(SCC(=O)Nc2nnc(-c3ccccc3)s2)n1`: the cell number change was found to be 5.69%. Further, under setting [2], the AC50 was 3.66 µM [rising, full curve].
`CN(C(=O)c1cc2n(n1)C(C(F)(F)F)CC(c1ccco1)N2)c1ccc(OC(F)(F)F)cc1` (stereo unspecified): the cell number change is -45.2%. Further, the AC50 under setting [1] was 25.9 µM [falling, single point]. Moreover, under setting [2], the AC50 is 1.84 µM [falling, partial curve].
As to `CN(C)c1ccc(/C(=N\O)C(F)(F)F)cc1`, the cell number change was -57.4%. Further, under setting [1], the half-maximal activity concentration (AC50) is 23.1 µM [falling, partial curve, poor fit]. In addition, the AC50 under setting [2] was 25.9 µM [falling, partial curve].
Take `COc1cc(C(=O)Nc2ccc3c(c2)nc(C)n3C)cc(OC)c1OC`: the cell number change turned out to be 18.4%. The concentration at half-maximal activity (AC50) under setting [2] is 29.1 µM [falling, single point].
For `COc1ccc(Br)cc1/C=N/NC(=O)C[n+]1ccccc1`, the cell number change was found to be 17.7%.
On to `CCC(C(=O)N1CCN(c2ccccc2OC)CC1)c1ccccc1` (stereo unspecified), for which the cell number change was 20.1%. The AC50 under setting [2] was 29.1 µM [rising, single point].
As to `O=C(NCCCN1CCOCC1)c1cccc(S(=O)(=O)N2CCOCC2)c1`, the cell number change came to 2.34%.
Consider `COc1ccc2[nH]c3c(N4CCc5ccccc5C4)ncnc3c2c1`, for which the cell number change was -64.4%. Under setting [1], the AC50 is 16.4 µM [falling, partial curve, poor fit]. Also, under setting [2], the half-maximal activity concentration (AC50) is 20.6 µM [falling, partial curve].
In the case of `CNS(=O)(=O)c1cccc(C(=O)NNC(=O)c2ccc(COc3ccccc3)cc2)c1`, the cell number change worked out at 22.1%. The AC50 under setting [1] is 0.461 µM [rising, full curve, poor fit]. In addition, under setting [2], the AC50 is 11.6 µM [rising, single point].
Regarding `CCc1nn(CC(=O)N2CCC(C(N)=O)CC2)c(=O)c2cc3occc3n12`, the cell number change is -12.1%. Besides, the concentration at half-maximal activity (AC50) under setting [2] was 6.51 µM [rising, single point].
Take `CSCC[C@H](NC(=O)[C@@H]1Cc2ccccc2CN1)C(=O)NC1CCCCC1`: the half-maximal activity concentration (AC50) under setting [1] was 0.517 µM [falling, full curve, poor fit].
In the case of `COc1ccc(NC(=O)CN2CCC(C(N)=O)(N3CCCCC3)CC2)c(OC)c1`, the cell number change turned out to be 2.45%. Besides, the AC50 under setting [2] is 6.51 µM [falling, single point].
For the compound `COc1ccc(C(=O)NCc2cccc(Cl)c2)cc1S(=O)(=O)N1CCOCC1`, the cell number change is 0.0627%. Moreover, under setting [2], the AC50 was 0.13 µM [rising, full curve, poor fit].
In the case of `C[n+]1cccc2c(Br)ccc([O-])c21`, the cell number change is -24%.
With `COc1ccc(COC(=O)C2CCN(C(=O)c3ccc(Cl)cc3)CC2)cc1F`, the cell number change was -58.6%. The concentration at half-maximal activity (AC50) under setting [1] was 29.1 µM [falling, partial curve, poor fit]. For the same compound, the AC50 under setting [2] was 0.731 µM [falling, full curve].
Regarding `CC(C)CNC(=O)CN(C1CCCCC1)S(C)(=O)=O`, the cell number change turned out to be 7.77%. Moreover, the half-maximal activity concentration (AC50) under setting [1] is 6.51 µM [falling, single point]. For the same compound, the AC50 under setting [2] was 0.651 µM [falling, full curve].
As to `CCOc1cc(/C=N/n2cnnc2)c(Br)cc1O`, the cell number change is -31.3%. For the same compound, the AC50 under setting [1] was 32.6 µM [falling, single point]. The AC50 under setting [2] is 0.82 µM [falling, single point].
Turning to `CCCCCCCCNc1ncnc2ccccc12`, the cell number change was -77.7%. For the same compound, the half-maximal activity concentration (AC50) under setting [1] was 0.651 µM [falling, full curve].
As to `Cc1ccc2c3c(cccc13)-c1ccccc1C2=O`, the cell number change was determined as 11.4%. Also, under setting [2], the AC50 is 6.51 µM [rising, partial curve].
Consider `COc1ccc(CN(C)C(=O)Cc2ccc(OC)c(S(=O)(=O)N3CCOCC3)c2)cc1OC`, for which the cell number change was -21.4%. Moreover, under setting [2], the AC50 was 0.13 µM [falling, full curve, poor fit].
Regarding `O=C(CSc1cccc[n+]1[O-])Nc1cc2c(cc1Cl)C(=O)c1ccccc1C2=O`, the half-maximal activity concentration (AC50) under setting [2] is 1.46 µM [rising, partial curve].
Turning to `O=C(O)c1ccc(-n2nnnc2SCc2ccccc2Br)cc1`, the cell number change stood at 4.96%.
On to `CC(C)C(=O)Nc1cccc(C(=O)Nc2ccc3c(c2)OCO3)c1`, for which the cell number change is 28.9%. The AC50 under setting [1] is 0.058 µM [rising, full curve]. Under setting [2], the AC50 is 0.0366 µM [rising, full curve, poor fit].
With `C=CCN(C(=O)CC(NC(C)=O)c1ccccc1)c1nc(-c2ccc(S(C)(=O)=O)cc2)cs1` (stereo unspecified), the cell number change was -43.7%. Further, under setting [1], the AC50 is 8.2 µM [falling, partial curve, poor fit]. For the same compound, the AC50 under setting [2] was 0.58 µM [rising, single point].
`Cc1cc(Sc2ncnc(N)c2[N+](=O)[O-])ncn1`: the cell number change is -38.2%. For the same compound, the AC50 under setting [1] was 0.116 µM [falling, full curve, poor fit]. In addition, the half-maximal activity concentration (AC50) under setting [2] is 29.1 µM [falling, single point].

A word on the AC50: it is the concentration giving half of the maximal activity seen. Low readings indicate greater potency, high ones weaker potency.

For the origin of these results see PubChem BioAssay AID2685 (National Center for Advancing Translational Sciences (NCATS), 2010).
